From patent US20150110865A1, “CNS STIMULANT AND OPIOID RECEPTOR ANTAGONIST COMBINATION AS A NON-ADDICTIVE, NON-AVERSIVE AND SYNERGISTIC ANTI-OBESITY TREATMENT” (FLORIDA STATE UNIVERSITY RESEARCH FOUNDATION, priority 2013, published 2015)
At least one structure is not confirmed: it was looked up by name or label, or the drawing left a doubt.

Test system: C57/B6 mice
Assay: Conditioned place preference (CPP)
Type: in vivo, mouse
Description: C57/B6 mice are purchased from Charles River Laboratories. Only male mice are used.
A three-chamber place preference apparatus is used. The apparatus has two equally sized (16.8×12 cm) preference chambers connected by a central chamber (7.2×12 cm), and is outfitted with sliding guillotine-style doors between each chamber. Photobeams connected to a computer system can record animal location and time spent in that location. The central chamber has a gray colored smooth floor. The preference chamber is either white with a mesh floor or black with a bar floor. The CPP procedure included three phases: Pre-conditioning, conditioning and test phases.
The pre-conditioning phase is performed on day 1 (two sessions daily, AM and PM). […] The time spent in each chamber is recorded. […]
During the test phase, (one session on the day after the conditioning phase) the mice are placed in the central gray chamber for 2 min and then given free access to the drug- and saline-paired chambers for 20 min. The time spent in each chamber is recorded. The difference between time spent in the drug-paired chamber during the test phase and pre-conditioning phases was calculated as the CPP score. […]
Differences between two experimental groups are analyzed for statistical significance by using Student's t-test. […]

## COC(=O)[C@H]1[C@@H](OC(=O)c2ccccc2)C[C@@H]2CC[C@H]1N2C [cocaine]
Cocaine 10 mg/kg i.p., positive control, t-test p=0.004, n=6/group, FIG. 1
  time spent in drug-paired chamber, Test sessions compared to pre-conditioning sessions: significantly longer period of time in the drug-paired chamber
Cocaine 10 mg/kg, multiple comparisons test, FIG. 2
  CPP score compared to saline-treated group: significant (p<0.05) effects
